Reference: patent publication US20260217861A1
These are yes or no findings as the source states them, for the method shown. Some entries that bind do so weakly or less than the wild type.

T1: humanised GPV of hGp5^KIN mice (human extracellular domain, mouse transmembrane and intracellular domain) (human; mouse) (UniProt P40197)
T1 sequence: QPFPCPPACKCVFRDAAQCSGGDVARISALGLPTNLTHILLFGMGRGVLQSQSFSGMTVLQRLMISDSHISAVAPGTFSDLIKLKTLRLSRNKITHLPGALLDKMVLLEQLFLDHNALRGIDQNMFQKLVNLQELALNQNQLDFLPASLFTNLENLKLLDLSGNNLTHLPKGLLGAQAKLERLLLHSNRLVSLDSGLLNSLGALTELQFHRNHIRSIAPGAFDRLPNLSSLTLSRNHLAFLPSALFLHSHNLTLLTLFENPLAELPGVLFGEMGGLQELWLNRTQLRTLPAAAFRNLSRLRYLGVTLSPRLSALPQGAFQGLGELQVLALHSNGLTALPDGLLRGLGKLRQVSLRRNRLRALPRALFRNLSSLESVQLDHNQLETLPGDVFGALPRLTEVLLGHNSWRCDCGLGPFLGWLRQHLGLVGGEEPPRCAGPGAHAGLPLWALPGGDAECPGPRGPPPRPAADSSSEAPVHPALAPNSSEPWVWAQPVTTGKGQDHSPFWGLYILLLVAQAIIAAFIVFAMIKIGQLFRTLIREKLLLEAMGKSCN

T2: recombinant ectodomain of human GPV (rhGPV) (human) (UniProt P40197)
T2 sequence: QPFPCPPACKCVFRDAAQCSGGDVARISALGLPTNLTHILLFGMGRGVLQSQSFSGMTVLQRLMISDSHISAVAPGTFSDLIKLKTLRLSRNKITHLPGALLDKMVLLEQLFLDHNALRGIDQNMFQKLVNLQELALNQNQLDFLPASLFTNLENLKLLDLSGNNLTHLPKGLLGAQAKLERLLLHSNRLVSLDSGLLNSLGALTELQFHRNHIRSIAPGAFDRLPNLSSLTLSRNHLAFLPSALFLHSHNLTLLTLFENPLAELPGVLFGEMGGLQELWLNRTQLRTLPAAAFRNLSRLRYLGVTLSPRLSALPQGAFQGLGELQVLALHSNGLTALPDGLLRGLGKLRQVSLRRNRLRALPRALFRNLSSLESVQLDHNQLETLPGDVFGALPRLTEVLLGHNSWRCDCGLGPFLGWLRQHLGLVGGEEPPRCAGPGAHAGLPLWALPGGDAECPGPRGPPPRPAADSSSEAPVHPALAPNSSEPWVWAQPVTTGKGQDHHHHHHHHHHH


Columns and labels:
[1] = biological target: T1, humanised GPV of hGp5^KIN mice (human extracellular domain, mouse transmembrane and intracellular domain) (human; mouse); experiment: flow cytometry of platelets from LUM11-injected hGp5^KIN mice
[2] = biological target: T2, recombinant ectodomain of human GPV (rhGPV) (human); experiment: fluorescent staining of rhGPV in the static fibrin polymerisation assay, confocal microscopy

binding [1]	binding [2]	Binder
binds		LUM11 (antibody, V domains shown) VH: QVQLKESGPGLVQPSQTLSLTCTVSGFSLTSYGVNWVRQPPGKGLEWIAAISSGGSTYYNSSLKSRLSISRDTSKSQVFLKMNSLQTEDTAIYFCTRGYYGYDYDYFDYWGQGVMVTVSS VL: NIQLTQSPSLLSASVGDRVTLSCKGSQNINNYLAWYQQKLGEAPKLLIYNTNSLQTGIPSRFSGGGSGADYTLTISSLQPEDVATYLCYQYNNGYTFGAGTKMELK
	binds	LUM/B (antibody, V domains shown) VH: EVQLVESGGGLVQPGRSLKLSCAASGFTFSDYNMAWVRQAPKKGLEWVATFIYDGSNTYYGDSVKGRFTVSRDNAKSTLYLQMDSLRSEDTATYYCTTHTWANWFAYWGQGTLVTVSS VL: NIQLTQSPALLSASVGDRVTLSCRGSQNINNYLAWYQQKLGEAPKLLIYSTNSLQTGIPSRFSGSGSGTDYTLTISSLQPEDVATYFCYQYNNGYTFGPGTKLELK
